Results are given in words; binding and its absence hold for the method and conditions named. Some results given as binding are weak or reduced against the parent protein; the word gives no strength. Where a sequence is shown, tags or fusion partners need not be part of it.
Key:
[1] = target: TatC with a hexa-histidine tag on the C-terminus, produced alone from pFAT588 (Escherichia coli (strain MC4100)) (UniProt P69423); test: native gel or EMSA; BN-PAGE (5-18% gradient) of digitonin-solubilized whole membranes of the Tat wild-type strain C43(DE3) overproducing the TatCHis variants; anti-His tag immunoblot
[2] = target: TatC with a hexa-histidine tag on the C-terminus, produced alone from pFAT588 (Escherichia coli (strain MC4100)) (UniProt P69423); test: cross-linking; disulfide links between TatC protomers formed during solubilization and purification; purified TatCHis on SDS-PAGE, Coomassie and immunoblot; oligomers decreased with reductant or DTT; both purified
[3] = target: TatC with a hexa-histidine tag on the C-terminus, produced alone from pFAT588 (Escherichia coli (strain MC4100)) (UniProt P69423); test: native gel or EMSA; BN-PAGE (4-16% gradient) of TatCHis variants purified in digitonin from the ΔtatABC strain C43ΔTat(DE3); Coomassie stained; both purified
[4] = target: TatC with a hexa-histidine tag on the C-terminus, produced alone from pFAT588 (Escherichia coli (strain MC4100)) (UniProt P69423); test: native gel or EMSA; BN-PAGE (5-18% gradient) of digitonin-solubilized whole membranes of the ΔtatABC strain C43ΔTat(DE3) overproducing the TatCHis variants; anti-His tag immunoblot
[5] = target: TatC with a hexa-histidine tag on the C-terminus, produced alone from pFAT588 (Escherichia coli (strain MC4100)) (UniProt P69423); test: SEC; Superose 6 column, Ni(II) affinity-purified TatCHis from strain C43(DE3) in 20 mM MOPS-HCl pH 7.2, 200 mM NaCl, 0.1% digitonin; both purified
[6] = target: T1, TatC with a hexa-histidine tag on the C-terminus, co-produced with TatB (with or without TatA, TatD, TatE) (Escherichia coli) (UniProt P69423); test: co-purification by Ni(II) affinity chromatography + SEC; TatCHis-containing complexes from digitonin-solubilized membranes of strain DADE producing TatABCHisDE; Ni(II) HiTrap column, then Superose 6 in 20 mM MOPS-HCl pH 7.2, 200 mM NaCl, 0.1% digitonin; peak fraction on SDS-PAGE, Coomassie
T1 sequence: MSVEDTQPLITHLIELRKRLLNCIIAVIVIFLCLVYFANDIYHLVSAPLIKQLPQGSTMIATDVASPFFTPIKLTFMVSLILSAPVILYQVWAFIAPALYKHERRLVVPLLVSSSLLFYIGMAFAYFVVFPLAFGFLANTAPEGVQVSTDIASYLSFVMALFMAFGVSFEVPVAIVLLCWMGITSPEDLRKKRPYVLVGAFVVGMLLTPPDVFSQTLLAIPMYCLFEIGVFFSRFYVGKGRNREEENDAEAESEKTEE

Measured: binding

B1: TatC with a hexa-histidine tag on the C-terminus, produced alone from pFAT588 (natural protein, Escherichia coli (strain MC4100), UniProt P69423 1-258, looked up)
chain: MVSVEDTQPLITHLIELRKRLLNCIIAVIVIFLCLVYFANDIYHLVSAPLIKQLPQGSTMIATDVASPFFTPIKLTFMVSLILSAPVILYQVWAFIAPALYKHERRLVVPLLVSSSLLFYIGMAFAYFVVFPLAFGFLANTAPEGVQVSTDIASYLSFVMALFMAFGVSFEVPVAIVLLCWMGITSPEDLRKKRPYVLVGAFVVGMLLTPPDVFSQTLLAIPMYCLFEIGVFFSRFYVGKGRNREEENDAEAESEKTEE
notes: TatC, Escherichia coli; tatC gene amplified from chromosomal DNA of strain MC4100, cloned NcoI/BglII into pQE60; protomer molecular weight printed as 28.9 kDa; also called TatCHis; source: E. coli strain C43(DE3) or its ΔtatABC derivative C43ΔTat(DE3), overproduced from pFAT588; digitonin-solubilized membranes; not shown: His6, C-terminal, kept
not listed: [6]
binds: all other assays above

B2: TatA, untagged, co-produced with TatB and TatCHis (protein, UniProt P69428 1-89)
chain: MGGISIWQLLIIAVIVVLLFGTKKLGSIGSDLGASIKGFKKAMSDDEPKQDKTSQDADFTAKTIADKQADTNQEQAKTEDAKRHDKEQV
binds: [6]
